Measured values as given in patent US20020055528A1, “Artemisinin analogs having antimalarial, antiproliferative, and antitumor activities and chemoselective methods of making the same” (priority 1999, published 2002).
Some of these results come from one statement about several compounds together.

Test system: MOLT-4
Conditions: FIGS. 6a-6e
Description: The screening assay is performed on 96-well microtitre plates. Relatively high initial inoculation densities are used, in order to permit measurement of “time-zero” values and to enhance the screen's ability to detect and provide some differentiation between antiproliferative and cytotoxic response parameters. […] The inoculated microtitre plates are pre-incubated for 24 hours at 37θC prior to drug additions. The five drug dilutions tested routinely range from 10^−4 to 10^−8 molar. Higher or lower concentration ranges may be selected on a nonroutine basis if appropriate solubility and/or prior biological information or other screening data so dictate. Duplicate wells are prepared for all concentrations, (concentration is often denoted by placing brackets around a number); “time-zero” and “no drug” controls are also provided for each test. The minimum amount of compound required for a one-time evaluation in the routine screen can be calculated from the knowledge that each test requires a total of approximately 40 ml (0.04 liter) of cell culture medium containing the highest desired drug concentration. Thus, the amount (grams) of sample required (assuming an upper test concentration limit of 10^−4 M) is: molecular weight of compound×[…]. After a 48 hour incubation (37θC) with the test compound, the cells are fixed in situ to the bottoms of the microtitre wells by addition of 50 ul of either 50% trichloroacetic acid (for adherent cell lines) or 80% trichloroacetic acid (for settled cell suspension lines), followed by incubation for 60 minutes at 4θC. The cellular protein in each well is assayed using a sulforhodamine B (SRB) stain procedure. Briefly, after discarding the supernatants, the microtitre plates are washed 5 times with deionized water and air-dried. One hundred microliters of SRB solution (0.4% w/v in 1% acetic acid) is added to each microtitre well and incubated for 10 minutes at room temperature. […] The plates are air-dried, the bound stain is solubilized with Tris buffer, and the optical densities read at 515 nm. […]

C[C@@H]1CC[C@H]2[C@@H](C)C(=O)O[C@@H]3O[C@]4(C)CC[C@@H]1[C@]32OO4 [Artemisinin, artemisinin]
drug concentration for cytostasis (percentage growth 0): greater than 10^−4 M | drug concentration for primary growth inhibition (percentage growth +50): greater than 10^−4 molar

CC(=O)O[C@H]1C(=O)[C@@]2(C)[C@H]([C@H](OC(=O)c3ccccc3)[C@]3(O)C[C@H](OC(=O)[C@H](O)[C@@H](NC(=O)c4ccccc4)c4ccccc4)C(C)=C1C3(C)C)[C@]1(OC(C)=O)CO[C@@H]1C[C@@H]2O [Paclitaxel, paclitaxel, reference compound]
drug concentration for cytostasis (percentage growth 0): greater than 10^−4 M
